# Primary screen of a compound library

The chains behind the UniProt entries cited, without tags or fusion partners.
UniProt E9BF75, entry or part of it: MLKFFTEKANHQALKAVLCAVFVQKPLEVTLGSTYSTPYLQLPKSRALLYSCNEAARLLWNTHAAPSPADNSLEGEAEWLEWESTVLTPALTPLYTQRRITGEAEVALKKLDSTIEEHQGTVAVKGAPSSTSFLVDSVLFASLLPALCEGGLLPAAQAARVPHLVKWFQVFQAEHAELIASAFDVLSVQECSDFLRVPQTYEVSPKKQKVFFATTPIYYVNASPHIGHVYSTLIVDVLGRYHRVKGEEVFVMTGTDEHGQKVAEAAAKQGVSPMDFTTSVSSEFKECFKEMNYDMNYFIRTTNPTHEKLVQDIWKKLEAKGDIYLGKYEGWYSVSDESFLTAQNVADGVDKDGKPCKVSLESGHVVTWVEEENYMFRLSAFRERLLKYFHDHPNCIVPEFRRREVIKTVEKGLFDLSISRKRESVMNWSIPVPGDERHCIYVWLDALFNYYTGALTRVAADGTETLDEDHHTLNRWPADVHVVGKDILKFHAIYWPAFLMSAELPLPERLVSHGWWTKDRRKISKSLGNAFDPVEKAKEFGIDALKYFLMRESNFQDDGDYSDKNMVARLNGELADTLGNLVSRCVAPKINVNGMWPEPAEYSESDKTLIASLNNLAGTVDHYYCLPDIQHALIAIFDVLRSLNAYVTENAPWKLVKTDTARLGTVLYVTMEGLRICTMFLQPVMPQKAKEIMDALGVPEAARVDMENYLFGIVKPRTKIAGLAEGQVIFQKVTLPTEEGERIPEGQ

The values are deposited in ChEMBL (CHEMBL3988442, “University of Dundee, Small-Polar-MMV Screening Library” (2021)).

Results are percentages, as filed.
The record does not define 0% and 100%; most values in the screen are far below 50% and negative numbers occur (in some assays of this library far below -100).
This is an unselected part of the compounds tested.
A dash means the value is not listed here; it may have been measured.

Mtb heat-shock: 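Assay on Mycobacterium tuberculosis, filed only as a heat shock assay from Cornell; the read-out is not stated. The concentration is filed as 10 mM, unlikely as a test dose, so the dose is not known. The record gives no direction; compounds that gave an IC50 in retests scored well above the rest, so higher reads as stronger inhibition. Size under these conditions: about 69,000 compounds, about 930 of them at 50% or above in at least one test.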
LdMetRS: 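Methionyl-tRNA synthetase (putative), Leishmania donovani (UniProt E9BF75). Primary screen of methionyl-tRNA synthetase; the read-out is not stated. The test concentration is not given. The values are filed as inhibition. Of about 68,000 compounds tested this way, about 24 (0.035%) reached 50% or more in at least one test.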
Mtb growth Cornell: 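Whole-cell assay for inhibitors of Mycobacterium tuberculosis growth, labelled Cornell in the record; the read-out is not stated. The concentration is filed as 10 mM, unlikely as a test dose, so the dose is not known. The record gives no direction; compounds strong in two other growth screens of this library score well above the rest, so higher reads as stronger inhibition. About 53,000 compounds were tested under these conditions; 1.7% (about 900) showed 50% or more at least once.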

compound,Mtb heat-shock,LdMetRS,Mtb growth Cornell
CCc1nc(C2CCCN2c2ncc(Br)cn2)no1 (stereo not given),5.282,7.888,12.03
O=C(NC1CCCN(CCCc2ccccc2)C1)C1=CCCCC1 (stereo not given),10.18,15.77,23.14
C=C(C)COc1cccc(C(=O)N(C)C(C)c2ccncn2)c1 (stereo not given),-23.53,-2.211,9.51
CCn1nc(C)c(CN2CCC(c3ccn[nH]3)C2)c1C (stereo not given),-9.295,14.15,37.38
Cc1cncc(C(=O)N2CCC3(CCCN(c4nncs4)C3)C2)c1.O=C(O)C(F)(F)F (stereo not given),17.14,-,-1.085
COc1ccc(C(=O)NCc2cc(N3CCOCC3)ncn2)o1,-52.53,15.65,2.574
[H][C@]12CC[C@]([H])(CN(C(=O)N(C)C)C1)N(C(=O)c1cc(C(C)C)oc1C)C2,8.178,-,16.22
Cn1nc2c(cc1=O)CN(CCOc1ccccc1C#N)CC2,-29.08,13.6,-0.8159
CN(C)CCCn1cnc2cc(NC(=O)c3n[nH]c4c3CCC4)ccc21,2.895,16.62,41.33
Cc1cccc(C(C(=O)N(C)CCc2cn[nH]c2)N(C)C)c1 (stereo not given),-5.125,11.73,1.726
[H][C@@]12CCCN1CCCN(Cc1cnc(NCc3ccccc3)nc1)C2,19.3,-,12.19
N#CC1(C(=O)Nc2ccc(OC(F)F)cc2)CCCC1,24.07,18.58,5.885
COC(=O)c1cccc(C2CNCCN2C)c1 (stereo not given),-31.56,-6.231,-39.11
O=C(Cc1cccc(F)c1)NCCNCc1ccc2c(c1)CCO2,17.79,18.22,9.356
Cc1oc(-c2ccccc2)nc1CC(=O)NC1=NCCS1,20.62,7.246,11.94
COc1ccccc1C(=O)C1CCCN(c2cc(C#N)ccn2)C1 (stereo not given),6.529,11.25,9.38
NC(=O)c1cccc(CC2CCN(C(=O)Cn3cnnn3)C2)c1 (stereo not given),6.349,8.027,14.38
O=C(c1ccccn1)N1CCC(Cc2cnc3[nH]ccc3c2)CC1,-18.74,5.65,-7.938
CCCC(=O)N1CCN(CC(O)COCC)CC1 (stereo not given),-8.086,19.94,-
N#CCCNC(=O)CN1CC(n2cccn2)C1,-4.08,14.44,30.15
Cn1ccnc1CN1CCN2C[C@H](OCc3cccnc3)C[C@H]2C1,-,14.81,-
NC(=O)C1(c2cnccn2)CCCN1Cc1ccncc1 (stereo not given),-13.57,13.56,-20.07
[H][C@@]12CCN(S(=O)(=O)C3CC3)[C@]1([H])CC[C@@H](c1nc(C)no1)O2,-3.337,-,28.14
Cc1ccc(C)c(CC(=O)NC2(C#N)CCOCC2)c1,-3.396,23.76,-
CC(=O)N(Cc1ncc(C(C)C)o1)C1CCN(Cc2nccn2C)C1 (stereo not given),6.43,8.571,25.42
CCc1c(C)sc2ncnc(N3C[C@H](O)[C@@H](N4CCCC4)C3)c12,59.45,10.99,38.19
COCCN1CCCC1c1nccnc1Nc1ncc(C)s1 (stereo not given),34.79,9.647,-
COCCN1CCN(CC(=O)N(C)Cc2ccccc2)CC1C (stereo not given),-18.68,3.846,-3.473
CCc1ccc(C(=O)N2CCN(CCS(C)(=O)=O)CC2)o1,10.32,17.35,-
O=C(NCCNc1ncccn1)c1scnc1Cl,-5.503,6.186,25.23
CC(C)C(NC(=O)Nc1ccc(F)cc1)C(=O)N(C)C (stereo not given),54.32,9.485,5.623
O=C(NCC1CCCOC1)c1ccc(-c2cccs2)[nH]c1=O (stereo not given),-5.512,2.406,-
Cc1cc(CNc2ccc(C(=O)N3CCCC(C)C3)cc2C)no1 (stereo not given),1.788,12.55,14.73
CCC(C)NC(=O)N1CCCn2cnc(CO)c2C1 (stereo not given),-31.68,17.5,32.47
CCN1CCCN(C(=O)c2cnc(OC(C)C)c(Cl)c2)CC1,-12.85,2.5,3.535
CC[C@@]1(O)CCN(C(=O)CCSCc2ccc(F)cc2)C[C@H]1O,-34.16,5.025,-6.955
c1cnc(N2CC3(CCN(Cc4cccnc4)C3)C2)nc1,-,-1.681,-
CS(=O)(=O)N1CC2(CCN(C(=O)c3ccncc3)CC2)c2ccccc21.O=C(O)C(F)(F)F,-9.025,-,5.405
COC(=O)[C@H]1CN(C(C)=O)CCN1C(C)=O,-1.582,9.774,-35.38
NC(=O)c1ccc(N2CCCCC2)c(NC(=O)c2ccc(F)cc2Cl)c1,2.419,22.36,-
CCC[C@@H](NC(N)=O)C(=O)N1CCc2ccccc2CC1,-19.61,-3.014,-
Cc1cc(F)cc2c(N3CCC(S(N)(=O)=O)CC3)c(C#N)cnc12,2.133,13.17,-
Cn1ccnc1CN1CCCN(C(=O)c2ccc3[nH]nnc3c2)CC1,-13.56,0.2793,-31.66
O=C(NCc1ccnc(OCC(F)(F)F)c1)NCC1COCCO1 (stereo not given),14.97,16.17,44.58
CN(C)C(=O)N1CCN(Cc2noc(Cc3ccccc3)n2)CC1,0.1356,4.225,19.07
N#Cc1ccc(OCCn2cccn2)cc1,-18.3,12.46,-2.542
O=C(c1cccs1)N1CC[C@@H]2[C@H]1CCC(=O)N2c1ccccc1,-,14.29,-
CCC(=O)N1CCC2(CC1)C(c1cccnc1)CC(=O)N2CCOC.O=C(O)C(F)(F)F (stereo not given),-2.585,-,-7.576
COCC(=O)N1CCCC2(CCN(Cc3cccc(C)n3)C2=O)C1.O=C(O)C(F)(F)F (stereo not given),-18.83,-,24.06

Some entries from above, unchanged:

compound,Mtb heat-shock,LdMetRS,Mtb growth Cornell
CC(=O)N(Cc1ncc(C(C)C)o1)C1CCN(Cc2nccn2C)C1 (stereo not given),6.43,8.571,25.42
NC(=O)c1ccc(N2CCCCC2)c(NC(=O)c2ccc(F)cc2Cl)c1,2.419,22.36,-
CCN1CCCN(C(=O)c2cnc(OC(C)C)c(Cl)c2)CC1,-12.85,2.5,3.535